# These are yes or no findings as the source states them, for the method shown. Binding seen in cells or lysates may run through a third protein. Some results given as binding are weak or reduced against the parent protein; the word gives no strength.
# Chains of the proteins cited; added tags and fusions are not shown.
# UniProt P03496: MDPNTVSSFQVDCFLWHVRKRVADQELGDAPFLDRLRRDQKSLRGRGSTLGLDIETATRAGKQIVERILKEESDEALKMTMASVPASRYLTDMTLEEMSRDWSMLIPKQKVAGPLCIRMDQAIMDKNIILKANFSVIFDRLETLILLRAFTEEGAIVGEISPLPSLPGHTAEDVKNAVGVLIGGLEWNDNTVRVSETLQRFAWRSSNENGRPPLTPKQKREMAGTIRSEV
# UniProt Q9Y265: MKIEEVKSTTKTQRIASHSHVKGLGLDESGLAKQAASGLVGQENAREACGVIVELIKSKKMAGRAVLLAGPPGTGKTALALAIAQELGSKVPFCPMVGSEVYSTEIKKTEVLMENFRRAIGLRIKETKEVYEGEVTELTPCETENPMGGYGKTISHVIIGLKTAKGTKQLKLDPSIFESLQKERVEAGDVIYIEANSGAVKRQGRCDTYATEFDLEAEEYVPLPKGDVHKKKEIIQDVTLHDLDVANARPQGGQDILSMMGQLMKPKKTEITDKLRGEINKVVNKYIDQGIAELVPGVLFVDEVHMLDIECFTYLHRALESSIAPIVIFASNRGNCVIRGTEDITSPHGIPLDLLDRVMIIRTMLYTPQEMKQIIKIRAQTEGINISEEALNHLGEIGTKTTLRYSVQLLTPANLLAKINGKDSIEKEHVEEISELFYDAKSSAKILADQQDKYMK
# UniProt Q9Y230: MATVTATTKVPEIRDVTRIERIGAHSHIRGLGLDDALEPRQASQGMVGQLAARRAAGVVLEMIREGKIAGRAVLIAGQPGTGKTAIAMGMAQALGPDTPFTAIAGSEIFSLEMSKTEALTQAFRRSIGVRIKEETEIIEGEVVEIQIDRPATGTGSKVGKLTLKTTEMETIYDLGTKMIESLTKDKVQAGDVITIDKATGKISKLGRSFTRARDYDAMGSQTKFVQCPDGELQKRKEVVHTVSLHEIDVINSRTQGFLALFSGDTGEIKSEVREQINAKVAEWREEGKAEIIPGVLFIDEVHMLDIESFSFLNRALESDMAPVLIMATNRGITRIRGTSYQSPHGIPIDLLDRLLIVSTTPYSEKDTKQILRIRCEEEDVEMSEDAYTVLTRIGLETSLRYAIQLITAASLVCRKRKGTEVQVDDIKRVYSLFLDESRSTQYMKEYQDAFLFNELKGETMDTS
# Key:
# Experiment in all cases: co-IP
# [1] = target: Flag-tagged NS1 protein of influenza A/PR/8/34 (PR8) virus (influenza A virus A/PR/8/34 (PR8)) (UniProt P03496)
# HA-tagged RuvBL1 = HA-tagged RuvBL1 (UniProt Q9Y265)
# HA-tagged RuvBL2 (human) = HA-tagged RuvBL2 (human) (UniProt Q9Y230)
Substance,binding [1],binding (HA-tagged RuvBL1),binding (HA-tagged RuvBL2 (human))
HA-tagged RuvBL1 (from UniProt Q9Y265 1-456),binds,,
Flag-tagged NS1 protein of influenza A/PR/8/34 (PR8) virus (from UniProt P03496 1-230),,binds,binds

# — PMC8229658 (Viruses, 2021)
